Compound in this assay: CCc1cnccc1C(=O)Nc1cc2c(cc1F)NC(=O)CC2
Description: melting temperature shift (DMSO Tm minus MBE1-treated Tm) in cellular thermal proteome profiling; higher = less thermal stabilization by MBE1 (negative = stabilized by MBE1). The conditions noted are these: A375.

By UniProt entry, the sequences of proteins in these tests, tags left out. Where a name states a change or a piece, a line headed by the entry shows the natural chain unless it says otherwise.
UniProt O95861: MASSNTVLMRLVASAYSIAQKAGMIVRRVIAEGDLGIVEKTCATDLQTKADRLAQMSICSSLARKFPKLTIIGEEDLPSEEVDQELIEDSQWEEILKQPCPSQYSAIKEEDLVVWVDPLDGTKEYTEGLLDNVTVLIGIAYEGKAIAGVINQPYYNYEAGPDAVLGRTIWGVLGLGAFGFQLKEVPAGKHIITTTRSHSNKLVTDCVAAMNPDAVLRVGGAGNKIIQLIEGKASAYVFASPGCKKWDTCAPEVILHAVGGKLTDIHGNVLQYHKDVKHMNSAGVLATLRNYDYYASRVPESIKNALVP
UniProt O95229: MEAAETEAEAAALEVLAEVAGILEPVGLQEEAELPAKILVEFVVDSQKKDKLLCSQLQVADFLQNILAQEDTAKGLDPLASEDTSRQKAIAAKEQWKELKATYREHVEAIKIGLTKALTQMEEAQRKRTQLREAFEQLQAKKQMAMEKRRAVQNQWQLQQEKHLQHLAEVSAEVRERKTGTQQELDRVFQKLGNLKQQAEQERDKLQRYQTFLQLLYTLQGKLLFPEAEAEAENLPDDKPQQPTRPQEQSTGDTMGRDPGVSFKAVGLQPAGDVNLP
UniProt O95359: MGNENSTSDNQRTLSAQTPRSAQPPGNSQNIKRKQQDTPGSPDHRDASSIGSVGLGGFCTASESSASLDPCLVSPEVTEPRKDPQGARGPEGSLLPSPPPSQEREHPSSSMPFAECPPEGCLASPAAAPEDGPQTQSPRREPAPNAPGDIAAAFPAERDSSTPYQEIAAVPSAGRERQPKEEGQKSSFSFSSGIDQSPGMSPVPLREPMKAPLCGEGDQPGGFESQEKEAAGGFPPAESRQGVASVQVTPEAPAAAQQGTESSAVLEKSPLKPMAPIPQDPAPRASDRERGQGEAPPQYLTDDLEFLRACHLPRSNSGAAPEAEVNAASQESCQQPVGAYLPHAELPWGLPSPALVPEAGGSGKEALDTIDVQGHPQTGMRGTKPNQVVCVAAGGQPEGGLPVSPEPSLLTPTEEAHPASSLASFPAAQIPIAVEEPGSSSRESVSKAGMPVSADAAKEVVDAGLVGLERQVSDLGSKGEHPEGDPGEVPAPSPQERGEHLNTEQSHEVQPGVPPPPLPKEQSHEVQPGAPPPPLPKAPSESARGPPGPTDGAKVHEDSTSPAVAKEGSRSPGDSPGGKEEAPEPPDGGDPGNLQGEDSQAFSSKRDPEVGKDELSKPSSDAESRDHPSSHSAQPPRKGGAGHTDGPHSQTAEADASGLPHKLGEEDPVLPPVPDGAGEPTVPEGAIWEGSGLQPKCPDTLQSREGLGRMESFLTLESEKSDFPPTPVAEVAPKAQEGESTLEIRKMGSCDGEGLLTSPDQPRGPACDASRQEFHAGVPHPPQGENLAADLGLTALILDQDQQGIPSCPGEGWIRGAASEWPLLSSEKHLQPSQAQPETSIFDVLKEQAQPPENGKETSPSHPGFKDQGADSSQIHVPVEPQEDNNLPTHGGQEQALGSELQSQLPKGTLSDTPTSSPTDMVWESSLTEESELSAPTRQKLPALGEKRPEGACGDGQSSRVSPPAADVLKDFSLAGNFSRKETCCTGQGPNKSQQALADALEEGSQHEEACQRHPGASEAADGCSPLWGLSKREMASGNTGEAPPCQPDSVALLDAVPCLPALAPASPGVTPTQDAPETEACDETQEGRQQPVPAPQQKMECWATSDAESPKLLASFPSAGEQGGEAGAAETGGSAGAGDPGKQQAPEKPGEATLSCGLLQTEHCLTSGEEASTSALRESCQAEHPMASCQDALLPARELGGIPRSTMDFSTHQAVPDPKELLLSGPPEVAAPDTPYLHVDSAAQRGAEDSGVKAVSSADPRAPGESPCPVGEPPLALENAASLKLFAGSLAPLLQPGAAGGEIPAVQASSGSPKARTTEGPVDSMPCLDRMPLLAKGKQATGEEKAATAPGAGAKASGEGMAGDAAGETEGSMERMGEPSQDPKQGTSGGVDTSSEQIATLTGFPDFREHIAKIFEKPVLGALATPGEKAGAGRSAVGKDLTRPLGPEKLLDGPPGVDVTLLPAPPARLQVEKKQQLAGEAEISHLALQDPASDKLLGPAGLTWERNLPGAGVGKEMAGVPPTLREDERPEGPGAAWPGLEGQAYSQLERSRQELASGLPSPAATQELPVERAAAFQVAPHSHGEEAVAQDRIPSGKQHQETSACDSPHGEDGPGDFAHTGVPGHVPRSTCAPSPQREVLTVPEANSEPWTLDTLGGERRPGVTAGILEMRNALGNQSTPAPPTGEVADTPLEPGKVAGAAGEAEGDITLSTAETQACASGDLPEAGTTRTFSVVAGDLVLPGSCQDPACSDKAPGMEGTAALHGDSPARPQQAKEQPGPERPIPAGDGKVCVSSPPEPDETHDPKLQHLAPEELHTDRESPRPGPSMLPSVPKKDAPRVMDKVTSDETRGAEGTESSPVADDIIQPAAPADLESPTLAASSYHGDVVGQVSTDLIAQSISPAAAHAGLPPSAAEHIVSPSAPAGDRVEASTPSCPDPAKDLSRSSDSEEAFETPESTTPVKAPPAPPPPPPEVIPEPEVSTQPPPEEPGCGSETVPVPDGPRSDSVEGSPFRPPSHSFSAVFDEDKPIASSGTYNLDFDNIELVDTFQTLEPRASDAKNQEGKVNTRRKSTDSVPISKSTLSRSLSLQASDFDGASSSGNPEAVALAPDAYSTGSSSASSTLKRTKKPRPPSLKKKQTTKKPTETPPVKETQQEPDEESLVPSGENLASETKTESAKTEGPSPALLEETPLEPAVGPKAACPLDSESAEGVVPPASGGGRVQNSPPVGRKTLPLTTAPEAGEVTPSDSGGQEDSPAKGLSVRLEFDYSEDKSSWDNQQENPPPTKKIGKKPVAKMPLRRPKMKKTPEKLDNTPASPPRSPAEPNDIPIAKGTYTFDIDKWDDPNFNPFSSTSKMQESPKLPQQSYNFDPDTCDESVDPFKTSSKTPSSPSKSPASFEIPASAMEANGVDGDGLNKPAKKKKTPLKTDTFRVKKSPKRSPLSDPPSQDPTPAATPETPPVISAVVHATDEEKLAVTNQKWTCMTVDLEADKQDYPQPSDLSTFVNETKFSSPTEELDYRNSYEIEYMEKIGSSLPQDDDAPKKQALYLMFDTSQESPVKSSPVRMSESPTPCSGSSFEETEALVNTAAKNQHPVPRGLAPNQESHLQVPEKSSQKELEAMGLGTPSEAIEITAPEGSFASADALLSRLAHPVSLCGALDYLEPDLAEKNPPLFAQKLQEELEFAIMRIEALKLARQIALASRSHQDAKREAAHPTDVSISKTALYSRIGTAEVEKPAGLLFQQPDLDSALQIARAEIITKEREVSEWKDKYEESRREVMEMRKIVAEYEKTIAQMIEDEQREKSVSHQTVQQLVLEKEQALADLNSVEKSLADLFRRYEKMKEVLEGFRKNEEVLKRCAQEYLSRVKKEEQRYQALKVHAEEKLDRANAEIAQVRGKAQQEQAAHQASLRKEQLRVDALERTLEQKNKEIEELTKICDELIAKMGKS
UniProt O94885: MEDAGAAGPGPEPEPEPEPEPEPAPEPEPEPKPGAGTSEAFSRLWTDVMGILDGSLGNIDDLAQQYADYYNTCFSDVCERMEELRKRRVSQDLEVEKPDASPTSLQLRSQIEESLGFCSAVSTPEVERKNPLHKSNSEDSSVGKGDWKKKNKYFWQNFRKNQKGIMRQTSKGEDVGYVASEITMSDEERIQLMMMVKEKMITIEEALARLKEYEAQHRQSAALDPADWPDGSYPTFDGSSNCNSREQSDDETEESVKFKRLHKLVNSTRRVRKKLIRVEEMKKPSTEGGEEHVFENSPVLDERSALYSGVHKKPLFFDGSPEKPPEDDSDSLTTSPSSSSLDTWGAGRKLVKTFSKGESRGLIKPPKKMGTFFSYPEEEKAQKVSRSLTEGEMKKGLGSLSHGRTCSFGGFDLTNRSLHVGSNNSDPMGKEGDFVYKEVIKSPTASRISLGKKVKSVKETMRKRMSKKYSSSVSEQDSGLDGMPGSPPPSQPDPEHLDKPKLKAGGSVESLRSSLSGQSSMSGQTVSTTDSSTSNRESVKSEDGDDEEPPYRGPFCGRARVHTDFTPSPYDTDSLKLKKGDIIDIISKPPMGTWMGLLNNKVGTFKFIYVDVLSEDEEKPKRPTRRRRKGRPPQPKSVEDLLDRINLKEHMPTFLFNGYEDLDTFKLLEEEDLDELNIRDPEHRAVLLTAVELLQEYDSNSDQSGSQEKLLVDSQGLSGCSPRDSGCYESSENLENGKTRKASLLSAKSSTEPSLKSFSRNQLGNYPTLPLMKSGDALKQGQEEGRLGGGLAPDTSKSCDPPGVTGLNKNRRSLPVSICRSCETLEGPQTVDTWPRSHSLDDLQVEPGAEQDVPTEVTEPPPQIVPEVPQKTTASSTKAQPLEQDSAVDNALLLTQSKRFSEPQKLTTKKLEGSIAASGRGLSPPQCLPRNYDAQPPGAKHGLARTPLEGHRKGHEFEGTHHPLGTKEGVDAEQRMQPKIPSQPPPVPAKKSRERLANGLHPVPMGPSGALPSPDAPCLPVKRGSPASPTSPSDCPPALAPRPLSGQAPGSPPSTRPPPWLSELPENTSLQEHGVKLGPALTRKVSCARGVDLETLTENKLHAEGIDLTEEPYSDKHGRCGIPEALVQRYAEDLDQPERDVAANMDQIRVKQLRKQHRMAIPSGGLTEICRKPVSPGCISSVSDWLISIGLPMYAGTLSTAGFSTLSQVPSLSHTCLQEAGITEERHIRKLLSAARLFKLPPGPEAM
UniProt O94822: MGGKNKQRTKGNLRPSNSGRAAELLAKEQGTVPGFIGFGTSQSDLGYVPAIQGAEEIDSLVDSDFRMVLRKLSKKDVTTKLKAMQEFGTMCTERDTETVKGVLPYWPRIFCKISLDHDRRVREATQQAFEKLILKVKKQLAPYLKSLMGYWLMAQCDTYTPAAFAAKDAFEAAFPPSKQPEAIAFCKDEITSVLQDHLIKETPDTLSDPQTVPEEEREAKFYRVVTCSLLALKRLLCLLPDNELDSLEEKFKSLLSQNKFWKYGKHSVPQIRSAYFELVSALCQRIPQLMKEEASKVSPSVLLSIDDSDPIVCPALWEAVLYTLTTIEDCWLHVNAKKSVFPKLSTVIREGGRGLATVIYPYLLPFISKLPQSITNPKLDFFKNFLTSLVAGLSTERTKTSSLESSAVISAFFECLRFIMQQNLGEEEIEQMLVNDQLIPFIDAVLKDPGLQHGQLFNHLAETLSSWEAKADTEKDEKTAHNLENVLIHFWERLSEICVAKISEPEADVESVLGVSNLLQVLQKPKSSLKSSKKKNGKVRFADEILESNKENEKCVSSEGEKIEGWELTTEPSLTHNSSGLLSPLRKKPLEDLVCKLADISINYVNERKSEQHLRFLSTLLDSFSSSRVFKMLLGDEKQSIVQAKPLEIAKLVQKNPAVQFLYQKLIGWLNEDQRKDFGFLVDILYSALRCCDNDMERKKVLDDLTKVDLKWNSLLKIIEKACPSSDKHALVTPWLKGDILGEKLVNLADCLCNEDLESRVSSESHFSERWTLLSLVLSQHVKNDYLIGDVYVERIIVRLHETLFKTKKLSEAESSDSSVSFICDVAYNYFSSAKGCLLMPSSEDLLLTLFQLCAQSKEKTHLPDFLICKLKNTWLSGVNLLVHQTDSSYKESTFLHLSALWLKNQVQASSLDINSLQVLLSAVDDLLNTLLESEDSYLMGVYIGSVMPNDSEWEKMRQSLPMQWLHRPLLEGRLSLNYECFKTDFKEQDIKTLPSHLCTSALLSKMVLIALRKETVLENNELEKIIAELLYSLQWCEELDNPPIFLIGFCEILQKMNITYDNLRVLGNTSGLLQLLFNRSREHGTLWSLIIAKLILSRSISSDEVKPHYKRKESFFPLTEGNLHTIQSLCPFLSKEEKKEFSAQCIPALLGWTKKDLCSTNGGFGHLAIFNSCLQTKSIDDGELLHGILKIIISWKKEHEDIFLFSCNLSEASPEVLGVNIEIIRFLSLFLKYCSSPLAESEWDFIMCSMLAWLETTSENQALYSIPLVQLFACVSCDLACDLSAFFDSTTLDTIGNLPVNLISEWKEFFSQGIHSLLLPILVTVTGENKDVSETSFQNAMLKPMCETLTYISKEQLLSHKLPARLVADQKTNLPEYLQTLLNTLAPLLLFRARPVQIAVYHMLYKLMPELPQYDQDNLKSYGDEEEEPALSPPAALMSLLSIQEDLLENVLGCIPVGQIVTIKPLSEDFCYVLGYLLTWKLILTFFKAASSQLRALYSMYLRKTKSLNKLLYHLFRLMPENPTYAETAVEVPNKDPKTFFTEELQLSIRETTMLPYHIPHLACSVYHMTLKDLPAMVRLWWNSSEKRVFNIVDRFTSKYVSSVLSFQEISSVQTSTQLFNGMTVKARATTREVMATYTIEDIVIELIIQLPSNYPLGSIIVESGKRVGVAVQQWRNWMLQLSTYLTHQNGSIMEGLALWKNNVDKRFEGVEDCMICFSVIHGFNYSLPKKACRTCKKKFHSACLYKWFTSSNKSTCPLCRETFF

The other results are listed elsewhere or left out. The data scatter; read single values as rough.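 Many melting curves are irregular; where none melted, Tm was taken as 64 °C.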

Regarding VAPB (UniProt O95292), the melting temperature shift (MBE1 concentration: 100 nM) is -0.382 °C and the melting temperature shift (MBE1 concentration: 1 uM) is -0.784 °C.
Regarding SNAP29 (UniProt O95721), the melting temperature shift (MBE1 concentration: 100 nM) was -8.97 °C and the melting temperature shift (MBE1 concentration: 1 uM) was -3.35 °C.
On to BPNT1 (UniProt O95861), for which the melting temperature shift (MBE1 concentration: 100 nM) is -1.39 °C and the melting temperature shift (MBE1 concentration: 1 uM) is -2.11 °C.
As to CD2BP2 (UniProt O95400), the melting temperature shift by setting is: (MBE1 concentration: 100 nM) -0.122 °C; (MBE1 concentration: 1 uM) -0.41 °C.
The like results for GLS (UniProt O94925) were, in that order, -0.805 °C and -1.05 °C.
Turning to SLC4A2 (UniProt P04920), the melting temperature shift reads like this: (MBE1 concentration: 100 nM) -0.657 °C; (MBE1 concentration: 1 uM) 0.854 °C.
ATG7 (UniProt O95352): the melting temperature shift (MBE1 concentration: 100 nM) came to 1.07 °C and the melting temperature shift (MBE1 concentration: 1 uM) worked out at 0.69 °C.
On the same counts, the results for NDUFA7 (UniProt O95182) are 0.342 °C and 0.991 °C.
On to UniProt P05091, for which the melting temperature shift came to 0.376 °C (MBE1 concentration: 100 nM) and 0.57 °C (MBE1 concentration: 1 uM).
LUC7L3 (UniProt O95232): the melting temperature shift was -1.4 °C (MBE1 concentration: 100 nM) and -0.694 °C (MBE1 concentration: 1 uM).
Consider CCNK (UniProt O75909), for which the melting temperature shift was -0.355 °C (MBE1 concentration: 100 nM) and 0.604 °C (MBE1 concentration: 1 uM).
UniProt O95402: the melting temperature shift (MBE1 concentration: 100 nM) is -1.63 °C and the melting temperature shift (MBE1 concentration: 1 uM) was -1.25 °C.
As to RAB3D (UniProt O95716), the melting temperature shift (MBE1 concentration: 100 nM) is -0.593 °C and the melting temperature shift (MBE1 concentration: 1 uM) came to 0.507 °C.
With APOB (UniProt P04114), the melting temperature shift (MBE1 concentration: 100 nM) is -2.63 °C and the melting temperature shift (MBE1 concentration: 1 uM) is -2.8 °C.
The like results for USP19 (UniProt O94966) were, in that order, 0.586 °C and -0.0733 °C.
SCAF4 (UniProt O95104): the melting temperature shift was -0.671 °C (MBE1 concentration: 100 nM) and -0.423 °C (MBE1 concentration: 1 uM).
As for PHF14 (UniProt O94880), the melting temperature shift by setting is: (MBE1 concentration: 100 nM) 1.07 °C; (MBE1 concentration: 1 uM) 0.238 °C.
For the target HAUS5 (UniProt O94927), the melting temperature shift (MBE1 concentration: 100 nM) was -0.39 °C and the melting temperature shift (MBE1 concentration: 1 uM) is -0.713 °C.
In the case of CCNB2 (UniProt O95067), the melting temperature shift (MBE1 concentration: 100 nM) was -0.946 °C and the melting temperature shift (MBE1 concentration: 1 uM) was 1.36 °C.
In the case of ZWINT (UniProt O95229), the melting temperature shift was 1.06 °C (MBE1 concentration: 100 nM) and -0.275 °C (MBE1 concentration: 1 uM).
As to CEP152 (UniProt O94986), the melting temperature shift (MBE1 concentration: 100 nM) is -1.53 °C and the melting temperature shift (MBE1 concentration: 1 uM) turned out to be 2.75 °C.
Consider PYGL (UniProt P06737), for which the melting temperature shift by setting is: (MBE1 concentration: 100 nM) -0.617 °C; (MBE1 concentration: 1 uM) -0.181 °C.
On to TACC2 (UniProt O95359), for which the melting temperature shift runs as follows: (MBE1 concentration: 100 nM) -0.892 °C; (MBE1 concentration: 1 uM) 0.154 °C.
On the same counts, the results for UniProt O95382 are -1.04 °C and -0.826 °C.
Consider UniProt O76041, for which the melting temperature shift (MBE1 concentration: 100 nM) came to 2.45 °C and the melting temperature shift (MBE1 concentration: 1 uM) was -3.48 °C.
UniProt P03915: the melting temperature shift was 0.0733 °C (MBE1 concentration: 100 nM) and 1.99 °C (MBE1 concentration: 1 uM).
On the same counts, the results for UniProt O94901 are -0.0047 °C and -1.93 °C.
On the same counts, the results for UniProt O94885 are -1.21 °C and -0.244 °C.
For UniProt P04439, the melting temperature shift is -2.07 °C (MBE1 concentration: 100 nM) and -1.54 °C (MBE1 concentration: 1 uM).
As for LTN1 (UniProt O94822), the melting temperature shift is 0.0988 °C (MBE1 concentration: 100 nM) and -0.108 °C (MBE1 concentration: 1 uM).
Turning to LYPLA2 (UniProt O95372), the melting temperature shift is, setting by setting: (MBE1 concentration: 100 nM) -0.409 °C; (MBE1 concentration: 1 uM) -0.487 °C.
With UniProt P04626, the melting temperature shift reads like this: (MBE1 concentration: 100 nM) 0.296 °C; (MBE1 concentration: 1 uM) -0.782 °C.
Regarding POLR3D (UniProt P05423), the melting temperature shift is -0.08 °C (MBE1 concentration: 100 nM) and -0.0612 °C (MBE1 concentration: 1 uM).
Turning to ABL1 (UniProt P00519), the melting temperature shift was -0.743 °C (MBE1 concentration: 100 nM) and -1.23 °C (MBE1 concentration: 1 uM).
For NPM1 (UniProt P06748), the melting temperature shift by setting is: (MBE1 concentration: 100 nM) -0.41 °C; (MBE1 concentration: 1 uM) -1.97 °C.
The like results for NDUFB4 (UniProt O95168) were, in that order, -0.765 °C and -0.537 °C.
UBR5 (UniProt O95071): the melting temperature shift is, setting by setting: (MBE1 concentration: 100 nM) -1.04 °C; (MBE1 concentration: 1 uM) -1.09 °C.
On the same counts, the results for FKBP9 (UniProt O95302) are -0.59 °C and 0.543 °C.
Take ATP5L (UniProt O75964): the melting temperature shift by setting is: (MBE1 concentration: 100 nM) -2.85 °C; (MBE1 concentration: 1 uM) -2.68 °C.
In the case of PTBP3 (UniProt O95758), the melting temperature shift reads like this: (MBE1 concentration: 100 nM) -0.259 °C; (MBE1 concentration: 1 uM) -0.861 °C.
The like results for AHSA1 (UniProt O95433) were, in that order, 0.69 °C and -0.128 °C.
On the same counts, the results for CIAO1 (UniProt O76071) are 2.59 °C and -1.3 °C.
On the same counts, the results for GLUD1 (UniProt P00367) are -0.341 °C and -0.25 °C.
Turning to ACSL3 (UniProt O95573), the melting temperature shift stood at 0.287 °C (MBE1 concentration: 100 nM) and 0.36 °C (MBE1 concentration: 1 uM).
The like results for TXNDC12 (UniProt O95881) were, in that order, -0.208 °C and -2.28 °C.
As for SNAPIN (UniProt O95295), the melting temperature shift by setting is: (MBE1 concentration: 100 nM) -0.368 °C; (MBE1 concentration: 1 uM) -3.34 °C.
Consider YEATS4 (UniProt O95619), for which the melting temperature shift (MBE1 concentration: 100 nM) was 0.14 °C and the melting temperature shift (MBE1 concentration: 1 uM) is -0.159 °C.
With KAT7 (UniProt O95251), the melting temperature shift by setting is: (MBE1 concentration: 100 nM) -0.032 °C; (MBE1 concentration: 1 uM) -0.224 °C.
On the same counts, the results for DGAT1 (UniProt O75907) are -1.33 °C and 0.928 °C.
With ADA (UniProt P00813), the melting temperature shift was -2.23 °C (MBE1 concentration: 100 nM) and -1.17 °C (MBE1 concentration: 1 uM).
On the same counts, the results for PFTK1 (UniProt O94921) are 0.545 °C and 0.153 °C.

The record behind these values is the supplement of paper PMC12595434, “Development of retinoid nuclear receptor pathway antagonists through targeting aldehyde dehydrogenase 1A3” (iScience, 2025).
